± gives the uncertainty stated by the source. The uncertainty is large for many entries.
Experiment: self-splicing fitness, log relative to wild type (ln ratio); higher = more splicing; Tetrahymena group I intron in knt gene, E. coli kanamycin selection, DiMSum; sequences stand for … in CUCUCU…GGAGGGAAAAGUUAUCAGGCAUGCACCUGGUAGCUAGUCUUUAAACCAAUAGAUUGCAUCGGUUUAAAAGGCAAGACCGUCAAAUUGCGGGAAAGGGGUCAACAGCCGUUCAGUACCAAGUCUCAGGGGAAACUUUGAGAUGGCCUUGCAAAGGGUAUGGUAAUAAGCUGACGGACAUGGUCCUAACCACGCAGCCAAGUCCUAAGUCAACAGAUCUUCUGUUGAUAUGGAUGCAGUUCACAGACUAAAUGUCGGUCGGGGAAGAUGUAUUCUUCUCAUAAGAUAUAGUCGGACCUCUCCUUAAUGGGAGCUAGCGGAUGAAGUGAUGCAACACUGGAGCCGCUGGGAACUAAUUUGUAUGCGAAAGUAUAUUGAUUAGUUUUGGAGUACUCGUGGUCG
Outline: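 Library with all eight P1ex-region intron nucleotides randomised, intron inside the knt kanamycin-resistance gene on pET-22b(+), in E. coli BL21(DE3). Cells grew overnight at 37°C or 30°C on LB agar with or without 25 μg/mL kanamycin (plus 100 μg/mL carbenicillin, 50 μM IPTG, 0.2% rhamnose), in six replicate transformations. Pooled colonies were amplicon-sequenced on Illumina HiSeq 2500. DiMSum fitness is the error-weighted combination of wild-type-normalised replicate fold changes, kanamycin versus none.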

Sequence	self-splicing fitness (ln) (30 °C)	self-splicing fitness (ln) (37 °C)
UUGCAGCAAUAUUACGAAUC	-2.66 ± 0.55	
UAGGAGCAAUAUUACGACGU	-1.71 ± 0.69	
GAGGAGCAAUAUUACGGAAU		-2.97 ± 0.54
GUGCAGCAAUAUUACGUACA	-3.1 ± 0.65	
CUCGAGCAAUAUUACGGGGG		-3.97 ± 0.59
CCGUAGCAAUAUUACGCCGG		-2.03 ± 0.57
UACGAGCAAUAUUACGCUCU		-2.99 ± 0.61
UCGGAGCAAUAUUACGCGUU	-3.13 ± 1	-3.21 ± 1
UUUUAGCAAUAUUACGUACC		-0.786 ± 0.64
ACCGAGCAAUAUUACGGUAA	-2.6 ± 0.18	-1.7 ± 0.12
AUGGAGCAAUAUUACGAUUC		-3.09 ± 0.6
UUAUAGCAAUAUUACGUCAU	-3.04 ± 0.5	
UCGGAGCAAUAUUACGCUAC		-0.836 ± 0.74
CGUCAGCAAUAUUACGUAUA	-4.39 ± 0.51	
UCAUAGCAAUAUUACGGAAG	-3.74 ± 0.59	
CCAGAGCAAUAUUACGCUAC	-3.71 ± 0.74	
UACGAGCAAUAUUACGCGCG	-1.35 ± 0.13	-1.14 ± 0.18
UGGUAGCAAUAUUACGCGGU	-3.79 ± 0.59	
UCCGAGCAAUAUUACGGGAU		-2.77 ± 1.1
ACAGAGCAAUAUUACGUUUC	-4.36 ± 0.61	
UGUAAGCAAUAUUACGAGAU	-3.71 ± 0.3	-3.14 ± 0.37
GCCUAGCAAUAUUACGCAAG		-1.83 ± 0.53
CGAAAGCAAUAUUACGUGCG	-1.22 ± 0.076	-0.524 ± 0.097
UGGGAGCAAUAUUACGAGGG	-4.89 ± 1	
AUGUAGCAAUAUUACGGUAA	-2.15 ± 0.23	-1.36 ± 0.17

Sequence	self-splicing fitness (ln) (30 °C)	self-splicing fitness (ln) (37 °C)
UUAGAGCAAUAUUACGCAGA		0.205 ± 0.67
CUGCAGCAAUAUUACGGCGU	-3.63 ± 0.52	
UCUUAGCAAUAUUACGGCUC	-3.3 ± 0.6	-2.2 ± 1.1
CCGGAGCAAUAUUACGUGGC		-2.47 ± 1.1
GAAGAGCAAUAUUACGCGCA	-1.11 ± 0.2	-1.35 ± 0.14
CCCUAGCAAUAUUACGAUUC		-3.33 ± 1
CUAGAGCAAUAUUACGCUGG	-2.77 ± 0.76	
GUCGAGCAAUAUUACGAGCC		-2 ± 0.56
UAUGAGCAAUAUUACGAUGC	-3.05 ± 0.6	-1.17 ± 0.59
CGGAAGCAAUAUUACGUUCC		-3 ± 1.1
UGGAAGCAAUAUUACGUCAC	-4.71 ± 0.72	
ACGGAGCAAUAUUACGGCAU	-3.2 ± 0.56	
CUCUAGCAAUAUUACGCCGC	-2.42 ± 1.2	
AAAGAGCAAUAUUACGACCA		-2.77 ± 0.61
GACAAGCAAUAUUACGCCAC	-4.15 ± 0.51	
AGUGAGCAAUAUUACGAAAG	-2.65 ± 0.57	-2.62 ± 0.53
UGGAAGCAAUAUUACGAAUU	-3.34 ± 0.64	
CUAGAGCAAUAUUACGCGGA	-2.44 ± 0.78	
GGUCAGCAAUAUUACGGAGA	-4.32 ± 0.6	
CCCGAGCAAUAUUACGACAC		-2.13 ± 0.63
AGAUAGCAAUAUUACGCCGG		0.0981 ± 0.71
GAGCAGCAAUAUUACGUUCU	-5.73 ± 1	
GAUGAGCAAUAUUACGUCGG	-4.54 ± 0.51	
UUGUAGCAAUAUUACGAGAG		-3.15 ± 0.52
CAUAAGCAAUAUUACGAGAC		-2.82 ± 0.53

Sequence	self-splicing fitness (ln) (30 °C)	self-splicing fitness (ln) (37 °C)
CAGCAGCAAUAUUACGCGAA	-2.55 ± 0.13	-1.82 ± 0.15
UUCGAGCAAUAUUACGAUAU	-3.85 ± 0.33	-2.51 ± 0.49
GCUGAGCAAUAUUACGCAGC	-2.5 ± 0.91	
UCCGAGCAAUAUUACGGGUC	-5.44 ± 1	
GGGAAGCAAUAUUACGCCUC		0.321 ± 1.2
UGAAAGCAAUAUUACGUCUG	-0.102 ± 0.071	0.773 ± 0.09
UUCGAGCAAUAUUACGUACG		-0.522 ± 0.77
UCGAAGCAAUAUUACGUUAC	-4.41 ± 0.73	-2.95 ± 0.53
UAGGAGCAAUAUUACGCAGU	-4.62 ± 0.52	
AGACAGCAAUAUUACGCACG	-2.11 ± 0.12	-0.922 ± 0.13
GCGGAGCAAUAUUACGCAUG	-4.09 ± 0.75	
GUGUAGCAAUAUUACGAGAA	-1.35 ± 0.69	-1.14 ± 0.63
CACGAGCAAUAUUACGUAAC		-2.61 ± 0.55
GGUGAGCAAUAUUACGAAGC	-3.96 ± 0.76	0.0981 ± 0.87
GAGAAGCAAUAUUACGGCUC	-1.74 ± 0.59	
GUCCAGCAAUAUUACGUGCG	-1.15 ± 0.085	-1.14 ± 0.12
AGCGAGCAAUAUUACGCGCU		-1.36 ± 0.53
GAGCAGCAAUAUUACGCACU	0.841 ± 0.59	-0.862 ± 0.58
CGUGAGCAAUAUUACGUCAC		-2.18 ± 1.1
AGGGAGCAAUAUUACGCCAU		-2.49 ± 0.62
CUAAAGCAAUAUUACGGAUC		-3.08 ± 1
AUACAGCAAUAUUACGCUAC		-3.7 ± 0.51
GUCUAGCAAUAUUACGGCGU	0.142 ± 0.069	0.0882 ± 0.091
AUGAAGCAAUAUUACGACCC		0.554 ± 0.53
AAAAAGCAAUAUUACGCUUC		-2.92 ± 0.61

Some of the entries above in a different format.
Sequence | self-splicing fitness (ln) (30 °C) | self-splicing fitness (ln) (37 °C)
CCCGAGCAAUAUUACGACAC |  | -2.13 ± 0.63
AGAUAGCAAUAUUACGCCGG |  | 0.0981 ± 0.71
GAGCAGCAAUAUUACGUUCU | -5.73 ± 1 | 
GAUGAGCAAUAUUACGUCGG | -4.54 ± 0.51 | 
UUGUAGCAAUAUUACGAGAG |  | -3.15 ± 0.52
CAUAAGCAAUAUUACGAGAC |  | -2.82 ± 0.53
CAGCAGCAAUAUUACGCGAA | -2.55 ± 0.13 | -1.82 ± 0.15
UUCGAGCAAUAUUACGAUAU | -3.85 ± 0.33 | -2.51 ± 0.49
GCUGAGCAAUAUUACGCAGC | -2.5 ± 0.91 | 
UCCGAGCAAUAUUACGGGUC | -5.44 ± 1 | 
GGGAAGCAAUAUUACGCCUC |  | 0.321 ± 1.2
UGAAAGCAAUAUUACGUCUG | -0.102 ± 0.071 | 0.773 ± 0.09
UUCGAGCAAUAUUACGUACG |  | -0.522 ± 0.77
UCGAAGCAAUAUUACGUUAC | -4.41 ± 0.73 | -2.95 ± 0.53
UAGGAGCAAUAUUACGCAGU | -4.62 ± 0.52 | 
AGACAGCAAUAUUACGCACG | -2.11 ± 0.12 | -0.922 ± 0.13
GCGGAGCAAUAUUACGCAUG | -4.09 ± 0.75 | 
GGUGAGCAAUAUUACGAAGC | -3.96 ± 0.76 | 0.0981 ± 0.87
GAGAAGCAAUAUUACGGCUC | -1.74 ± 0.59 | 
GUCCAGCAAUAUUACGUGCG | -1.15 ± 0.085 | -1.14 ± 0.12
AGCGAGCAAUAUUACGCGCU |  | -1.36 ± 0.53
CGUGAGCAAUAUUACGUCAC |  | -2.18 ± 1.1
AGGGAGCAAUAUUACGCCAU |  | -2.49 ± 0.62
CUAAAGCAAUAUUACGGAUC |  | -3.08 ± 1
AUACAGCAAUAUUACGCUAC |  | -3.7 ± 0.51
GUCUAGCAAUAUUACGGCGU | 0.142 ± 0.069 | 0.0882 ± 0.091
AUGAAGCAAUAUUACGACCC |  | 0.554 ± 0.53
AAAAAGCAAUAUUACGCUUC |  | -2.92 ± 0.61

More results.

Sequence	self-splicing fitness (ln) (30 °C)	self-splicing fitness (ln) (37 °C)
GUUGAGCAAUAUUACGCCUC		-0.735 ± 1
CCGAAGCAAUAUUACGGGCC	-3.66 ± 1	-3.18 ± 1
AGCUAGCAAUAUUACGGAGG	-3.54 ± 0.16	-1.33 ± 0.14
GGGUAGCAAUAUUACGCUGC	-4.21 ± 1	-2.71 ± 0.76
UAAGAGCAAUAUUACGAGGC	-3.12 ± 0.58	
UGGAAGCAAUAUUACGGCGC	-1.23 ± 0.22	-0.241 ± 0.22
GCUUAGCAAUAUUACGUUAA	-4.66 ± 0.72	
UCCUAGCAAUAUUACGUCCC	-3.21 ± 1.1	
GGUGAGCAAUAUUACGUUGC		-2.76 ± 0.61
UCGCAGCAAUAUUACGGGUC	-4.91 ± 0.59	
CAGAAGCAAUAUUACGAGAA	-4.04 ± 0.53	
UGGCAGCAAUAUUACGAAAC	-3.22 ± 0.6	
GAUGAGCAAUAUUACGUGGU		-3.37 ± 0.52
UGCGAGCAAUAUUACGGAUC	-3.37 ± 0.75	-2.55 ± 0.76
GCGGAGCAAUAUUACGAAGG		-2.84 ± 1
AGUAAGCAAUAUUACGAGAC		-2.61 ± 0.54
GCUAAGCAAUAUUACGUACA	-1.38 ± 0.1	-0.974 ± 0.13
GUGCAGCAAUAUUACGGCUC	-0.0701 ± 0.085	-0.129 ± 0.1
UGCCAGCAAUAUUACGACUC	-2.15 ± 0.51	-1.34 ± 0.62
CACGAGCAAUAUUACGCAAU	-4.23 ± 0.19	-2.99 ± 0.16
CUCCAGCAAUAUUACGAUCA	-3.51 ± 0.73	-0.538 ± 0.68
GCCAAGCAAUAUUACGCAUA	-1.3 ± 0.09	-0.709 ± 0.085
UAGGAGCAAUAUUACGCCCA	-1.8 ± 0.9	-0.0369 ± 0.5
CUGUAGCAAUAUUACGCGCU	-5.1 ± 0.72	-3.8 ± 0.52
UGGUAGCAAUAUUACGAAUC		-3.48 ± 0.52

Sequence	self-splicing fitness (ln) (30 °C)	self-splicing fitness (ln) (37 °C)
GGAGAGCAAUAUUACGGACG	-4.76 ± 0.74	
UCUUAGCAAUAUUACGAGCC		-0.0848 ± 1.2
CCUAAGCAAUAUUACGUUCA	-4.67 ± 0.51	-3.79 ± 0.51
CAUAAGCAAUAUUACGUCAC		-3.16 ± 0.61
GUCUAGCAAUAUUACGAGAC	-3.7 ± 0.24	-2.34 ± 0.3
UGGAAGCAAUAUUACGCAUC	-4.47 ± 0.59	
UCCUAGCAAUAUUACGGCCC		-1.13 ± 1.2
GGGGAGCAAUAUUACGCUGU		-1.79 ± 1.2
CGUCAGCAAUAUUACGUACC	-1.33 ± 0.13	0.208 ± 0.15
GUGGAGCAAUAUUACGAUAG	-4.66 ± 1	-1.71 ± 0.52
CCAGAGCAAUAUUACGGACC	-2.73 ± 0.55	-1.17 ± 0.74
GUAAAGCAAUAUUACGCAAC	-1.85 ± 0.65	
UGUCAGCAAUAUUACGAUGC		-1.51 ± 0.51
UGGGAGCAAUAUUACGCAAA	-2.25 ± 0.57	
UGCGAGCAAUAUUACGUUGG	-3.52 ± 0.52	
AGGGAGCAAUAUUACGCAUC	-1.27 ± 1	-0.876 ± 0.54
GUGGAGCAAUAUUACGCGAC		-0.98 ± 0.77
UGUUAGCAAUAUUACGUAUC	-3.99 ± 0.72	
GCAGAGCAAUAUUACGCCGC		-1.71 ± 0.62
UCCAAGCAAUAUUACGCCGC		-2.24 ± 0.55
UUUAAGCAAUAUUACGUUCC	-4.08 ± 0.73	-1.53 ± 0.69
CUAUAGCAAUAUUACGUAAC		-3.08 ± 1
UAGUAGCAAUAUUACGAAGA	-2.81 ± 0.76	-1.6 ± 0.53

From the supplement of paper PMC7877785
